The supplement of paper PMC4635364
Counter-ions that a name gives are not always drawn. This is one part of the list. Repeats in this data set agree poorly, so a single value says little.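 Cells: ReNCell VM human fetal ventral-midbrain neural progenitors, differentiated mitogen-free. Blinded raters compared doublecortin-stained (early neurons) or tyrosine hydroxylase-stained (dopaminergic neurons) images with untreated wells, where 0 means no change. After repeats and both raters were averaged, compounds scoring 2 or above became hits for retesting.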

Key:
ReNCell VM [1] = experiment: neuronal differentiation score (DCX+ cell fraction vs untreated, manual image score) (score (-3 to 3)); higher = more neuronal differentiation; conditions: 2 uM, 2 weeks
ReNCell VM [2] = experiment: dopaminergic neuron differentiation score (TH+ cell fraction vs untreated, manual image score) (score (0 to 3)); higher = more TH+ dopaminergic neuron differentiation; conditions: 2 uM, 4 weeks, BDNF 10 ng/ml + GDNF 10 ng/ml

In the case of `N#C/C(=C\c1ccc(O)c(O)c1)C(N)=S` [Tyrphostin 47], the neuronal differentiation score (ReNCell VM [1]; library: LOPAC) is reported as inactive: 0 and the “dopaminergic neuron differentiation score” value (ReNCell VM [2]; library: LOPAC) is reported as inactive: 0.
`COc1cccc(C=O)c1OC` was tested, and the neuronal differentiation score (ReNCell VM [1]; library: Spectrum) was inactive: 0 and the “dopaminergic neuron differentiation score” value (ReNCell VM [2]; library: Spectrum) was inactive: 0.
With `NCCCNCCSP(=O)(O)O` [Amifostine] the neuronal differentiation score (ReNCell VM [1]; library: LOPAC) was inactive: 0, the neuronal differentiation score (ReNCell VM [1]; library: Prestwick) was inactive: 0 and the “dopaminergic neuron differentiation score” value (ReNCell VM [2]; library: LOPAC) was inactive: 0. The “dopaminergic neuron differentiation score” value (ReNCell VM [2]; library: Prestwick) was inactive: 0.
In the case of `CN(C)C(=S)SSC(=S)N(C)C`, the neuronal differentiation score (ReNCell VM [1]; library: Spectrum) is reported as inactive: 0 and the “dopaminergic neuron differentiation score” value (ReNCell VM [2]; library: Spectrum) is reported as inactive: 0.
For `C[C@]12CC[C@H]3[C@@H](CC[C@]4(O)C[C@@H](O)CC[C@]34C=O)[C@@]1(O)CC[C@@H]2C1=CC(=O)OC1` [Strophanthidin], the neuronal differentiation score (ReNCell VM [1]; library: Phytochemical) was inactive: 0 and the “dopaminergic neuron differentiation score” value (ReNCell VM [2]; library: Phytochemical) was inactive: 0.
With `COC1(C[S@+]([O-])c2ccccc2)CCN(CCc2c[nH]c3ccc(F)cc23)CC1` the neuronal differentiation score (ReNCell VM [1]; library: Tocriscreen) was inactive: 0 and the “dopaminergic neuron differentiation score” value (ReNCell VM [2]; library: Tocriscreen) was inactive: 0.
`COc1ccc2[nH]cc(C3=CCNCC3)c2c1` was tested, and the neuronal differentiation score (ReNCell VM [1]; library: Tocriscreen) was inactive: 0 and the “dopaminergic neuron differentiation score” value (ReNCell VM [2]; library: Tocriscreen) was inactive: 0.
With `CC(=O)[C@H]1CC[C@H]2[C@@H]3CC[C@H]4C[C@](C)(O)CC[C@]4(C)[C@H]3CC[C@]12C` [Ganaxolone] the neuronal differentiation score (ReNCell VM [1]; library: LOPAC) was inactive: 0, the neuronal differentiation score (ReNCell VM [1]; library: Tocriscreen) was inactive: 0 and the “dopaminergic neuron differentiation score” value (ReNCell VM [2]; library: LOPAC) was inactive: 0. For the same compound, the “dopaminergic neuron differentiation score” value (ReNCell VM [2]; library: Tocriscreen) was inactive: 0.
For `Cc1c(O)c(O)cc2c1CC=C1[C@@]2(C)CC[C@@]2(C)[C@@H]3C[C@](C)(C(=O)O)CC[C@]3(C)CC[C@]12C`, the neuronal differentiation score (ReNCell VM [1]; library: Spectrum) was inactive: 0 and the “dopaminergic neuron differentiation score” value (ReNCell VM [2]; library: Spectrum) was inactive: 0.
In the case of `CN1[C@@H]2C[C@@H](OC(=O)[C@H](CO)c3ccccc3)C[C@H]1[C@@H]1O[C@@H]12` [Scopolamine hydrochloride], the neuronal differentiation score (ReNCell VM [1]; library: Phytochemical) is reported as inactive: 0, the neuronal differentiation score (ReNCell VM [1]; library: Prestwick) is reported as inactive: 0 and the “dopaminergic neuron differentiation score” value (ReNCell VM [2]; library: Phytochemical) is reported as inactive: 0. For the same compound, the “dopaminergic neuron differentiation score” value (ReNCell VM [2]; library: Prestwick) was inactive: 0.
In the case of `O=C(O)c1nn(Cc2ccc(Cl)cc2Cl)c2ccccc12` [Lonidamine], the neuronal differentiation score (ReNCell VM [1]; library: LOPAC) is reported as inactive: 0, the neuronal differentiation score (ReNCell VM [1]; library: Tocriscreen) is reported as inactive: 0 and the “dopaminergic neuron differentiation score” value (ReNCell VM [2]; library: LOPAC) is reported as inactive: 0. The “dopaminergic neuron differentiation score” value (ReNCell VM [2]; library: Tocriscreen) was inactive: 0.
`CO[C@]12C[C@@H](COC(=O)c3cncc(Br)c3)CN(C)[C@@H]1Cc1cn(C)c3cccc2c13` [Nicergoline] was tested, and the neuronal differentiation score (ReNCell VM [1]; library: Prestwick) was inactive: 0, the neuronal differentiation score (ReNCell VM [1]; library: Tocriscreen) was inactive: 0 and the “dopaminergic neuron differentiation score” value (ReNCell VM [2]; library: Prestwick) was inactive: 0. For the same compound, the “dopaminergic neuron differentiation score” value (ReNCell VM [2]; library: Tocriscreen) was inactive: 0.
`C[C@]12CCC(=O)C=C1CC[C@@H]1[C@@H]2C(=O)C[C@]2(C)C(=O)CC[C@@H]12` [Adrenosterone] was tested, and the neuronal differentiation score (ReNCell VM [1]; library: Prestwick) was inactive: 0 and the “dopaminergic neuron differentiation score” value (ReNCell VM [2]; library: Prestwick) was inactive: 0.
For `CN1CCc2cc3c(cc2[C@H]1[C@@H]1OC(=O)c2c1ccc1c2OCO1)OCO3` [Bicuculline (+)], the neuronal differentiation score (ReNCell VM [1]; library: Phytochemical) was inactive: 0 and the “dopaminergic neuron differentiation score” value (ReNCell VM [2]; library: Phytochemical) was inactive: 0.
With `C[C@@]12N[C@@H](Cc3ccccc31)c1ccccc12` [(-)-MK 801 hydrogen maleate] the neuronal differentiation score (ReNCell VM [1]; library: Prestwick) was inactive: 0 and the “dopaminergic neuron differentiation score” value (ReNCell VM [2]; library: Prestwick) was inactive: 0.
For `C[N+](C)(C)CC#CCN1CCCC1=O` [Oxotremorine methiodide], the neuronal differentiation score (ReNCell VM [1]; library: LOPAC) was inactive: 0 and the “dopaminergic neuron differentiation score” value (ReNCell VM [2]; library: LOPAC) was inactive: 0.
In the case of `C[C@H](Cc1ccc2c(c1)OC(C(=O)O)(C(=O)O)O2)NC[C@H](O)c1cccc(Cl)c1`, the neuronal differentiation score (ReNCell VM [1]; library: LOPAC) is reported as inactive: 0 and the “dopaminergic neuron differentiation score” value (ReNCell VM [2]; library: LOPAC) is reported as inactive: 0.
For `CC[C@@H](CO)NC(=O)[C@@H]1C=C2c3cccc4[nH]cc(c34)C[C@H]2N(C)C1` [Methylergometrine maleate], the neuronal differentiation score (ReNCell VM [1]; library: Prestwick) was inactive: 0, the neuronal differentiation score (ReNCell VM [1]; library: Tocriscreen) was inactive: 0 and the “dopaminergic neuron differentiation score” value (ReNCell VM [2]; library: Prestwick) was inactive: 0. For the same compound, the “dopaminergic neuron differentiation score” value (ReNCell VM [2]; library: Tocriscreen) was inactive: 0.
With `N[C@@H](Cn1ccc(=O)[nH]c1=O)C(=O)O` [S(-)-Willardiine] the neuronal differentiation score (ReNCell VM [1]; library: LOPAC) was inactive: 0 and the “dopaminergic neuron differentiation score” value (ReNCell VM [2]; library: LOPAC) was inactive: 0.
With `CN1[C@@H]2C[C@@H](OC(=O)[C@H](CO)c3ccccc3)C[C@H]1[C@@H]1O[C@@H]12` the neuronal differentiation score (ReNCell VM [1]; library: Spectrum) was inactive: 0 and the “dopaminergic neuron differentiation score” value (ReNCell VM [2]; library: Spectrum) was inactive: 0.
`c1cc(Cc2cnc[nH]2)ccn1` [Immethridine dihydrobromide] was tested, and the neuronal differentiation score (ReNCell VM [1]; library: Tocriscreen) was inactive: 0 and the “dopaminergic neuron differentiation score” value (ReNCell VM [2]; library: Tocriscreen) was inactive: 0.
In the case of `O=C(O)Cc1cnc[nH]1`, the neuronal differentiation score (ReNCell VM [1]; library: Spectrum) is reported as inactive: 0 and the “dopaminergic neuron differentiation score” value (ReNCell VM [2]; library: Spectrum) is reported as inactive: 0.
For `N=C(N)NN` [Aminoguanidine hemisulfate], the neuronal differentiation score (ReNCell VM [1]; library: LOPAC) was inactive: 0 and the “dopaminergic neuron differentiation score” value (ReNCell VM [2]; library: LOPAC) was inactive: 0.
